These results are taken from the RNAGym collection of RNA variant scans (doi:10.1126/science.aae0568).

Variants at the background level are over-represented here. Where only a bound is given, the exact number is not on record here.

B1: tRNA (parent)
chain: GUUCCGUUGGCGUAAUGGUAACGCGUCUCCCUCCUAAGGAGAAGACUGCGGGUUCGAGUCCCGUACGGAACG

The series covers variants of B1. Briefly: yeast fitness relative to wild type (ratio to wild type); higher = fitter; tRNA-Arg(CCU), competitive growth, 37 C, YPD. In short, it runs like this:
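For this measurement, the tRNA-Arg(CCU) gene was varied by chemical synthesis at a 3% per-site mutation rate across 69 sites, and each variant was placed at the native genomic locus in Saccharomyces cerevisiae. The pooled strains went through a 24-hour competition in YPD at 37°C in six parallel replicates, with amplicons from start and end populations read by 100-nucleotide paired-end sequencing. Darwinian fitness relative to wild type followed from the change in each genotype's frequency. Genotypes needed ≥ 100 starting reads, and estimates < 0.5 were set to 0.5.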
With C4G C5U C31G G41A A43C G51C A70U, the yeast fitness was ≤ 0.5.

A37G C55A G58C: the yeast fitness was ≤ 0.5.

Consider U28A C29G A69U, for which the yeast fitness is ≤ 0.5. For the variant C5U A15G A20G C27G C33U, the yeast fitness was ≤ 0.5. For C5G G41C A42U C66U the value was ≤ 0.5; for C4U C11U G44C C49U A70U, ≤ 0.5. For U7G U13A G58C G63C the value was ≤ 0.5.

As to C5G G25A A42G U54G C55U A70C, the yeast fitness is ≤ 0.5. Consider A14U C30G C33A C60A, for which the yeast fitness was ≤ 0.5. For C5G G63C A69C the value was ≤ 0.5.

As to A15U C30G G50A A65C, the yeast fitness was ≤ 0.5. Regarding C4G G23C C30G, the yeast fitness was ≤ 0.5. For A37C C46U U59A the value was ≤ 0.5; for G38A C61A, 0.646; for A57G, 0.998. Regarding C5G A15U A20G G58A G67A, the yeast fitness is ≤ 0.5.

With C5U C22A C31G C34U U54C, the yeast fitness was ≤ 0.5.

In the case of C34U C60U C62G, the yeast fitness was ≤ 0.5. To G9A A21U C31G G52C A70U belongs ≤ 0.5. For C4A A21C G39C C49G the value was 0.511; for G6A A15C A36U A65C, ≤ 0.5; for C11G A14U C27G, ≤ 0.5.

For G17A A21G U28G A65U, the yeast fitness is ≤ 0.5. For G6C G10C G48C C62G A65U, the yeast fitness was ≤ 0.5. With A40C U54A C66A, the yeast fitness is ≤ 0.5. For C22A C30U C61G the value was ≤ 0.5. For C4A U16C G17A C49U the value was ≤ 0.5; for G48A G63A, 0.887. With G9C U16C C27G C29U U54C, the yeast fitness is ≤ 0.5. To A15U C33G A43C G44U belongs ≤ 0.5. For G12A A43C A69G the value was ≤ 0.5; for G12A A42G C55G, ≤ 0.5. For C11U C55A G58C the value was ≤ 0.5; for C5U C27G G68C, 0.577; for C11A C27U, 0.646. In the case of C5G C33A A36C, the yeast fitness is ≤ 0.5.

Consider G10A C24G A43C, for which the yeast fitness is ≤ 0.5. For G10A A14U G52C C62A the value was ≤ 0.5. For C31G C34U A40C G67A the value was ≤ 0.5; for C11A A15G C22U C29A A43U A45G A57U, ≤ 0.5.

For the variant C24A C61G, the yeast fitness is ≤ 0.5.

C27U C30U A42C: the yeast fitness was ≤ 0.5. As for G12C A20U C33U, the yeast fitness was 0.555. For C24G U32C A45C C60U C61A the value was ≤ 0.5; for C11U C29U A42C U59A, ≤ 0.5. To C34A A42U G58C C60A C62U belongs 0.571; to C22G C31A A45U A69C, ≤ 0.5; to G52A G56U G67U, ≤ 0.5. To C4A A43G A57U belongs ≤ 0.5; to A15U U19C C31U A40C A69C, ≤ 0.5; to G10A A14U A40G, ≤ 0.5. For the variant C31G G68C, the yeast fitness was 0.684.

For the variant G17C A42C U54A G67C A69U, the yeast fitness is ≤ 0.5.

On to U26A C49U C66A, for which the yeast fitness is ≤ 0.5. To C27U A36C G67A A69C belongs ≤ 0.5.

Consider C11G C24G U64A G68A, for which the yeast fitness is ≤ 0.5.

On to U35C A43C C55G C60A A65U, for which the yeast fitness is ≤ 0.5.

Consider A15C A36G G56A C61U, for which the yeast fitness was ≤ 0.5. To U16A C34U A65U G68A belongs ≤ 0.5; to G6A G17A G67U, ≤ 0.5; to C4A A20G C61G A65G, ≤ 0.5.

As to C5U C24U G41C, the yeast fitness is ≤ 0.5. As to C27U U35G A42U G63C, the yeast fitness is ≤ 0.5. For G12A A15G C60G the value was ≤ 0.5; for A14C A21C C24U A36U A43U, ≤ 0.5; for A15U G51C C55G, ≤ 0.5. To C5G G48C G51A A69U belongs ≤ 0.5. Consider C5G U7A A15C A57G, for which the yeast fitness was ≤ 0.5. For U28G A37G G50A A69C the value was ≤ 0.5; for U13C A20G G23C C31U C46G A70U, ≤ 0.5; for U2C U19C A37G C49A G63A, ≤ 0.5. Turning to C24G A42U A45G U54C, the yeast fitness was ≤ 0.5. U53G U54G C55A: the yeast fitness was ≤ 0.5. To U2G U3C C46A belongs ≤ 0.5. On to G56A A65U, for which the yeast fitness came to 0.978.

As to U13A A15G C22G C24U G44A U53G, the yeast fitness is ≤ 0.5. For C30G A37C C46G G56A the value was ≤ 0.5. For A21C U28A C29U C31G A43U A65U the value was ≤ 0.5; for U3G C11U U47A A69G, ≤ 0.5; for C5G C30G A69C, ≤ 0.5. Consider U7C G10A G50C G68C, for which the yeast fitness was ≤ 0.5. To C33U G38A C46U G67A belongs ≤ 0.5; to U2G C11U U28C C29G, ≤ 0.5; to U28A A36U C61A A69U, ≤ 0.5.

As for U16A A40G A57C, the yeast fitness was ≤ 0.5. In the case of A14C U26A C34A G44A, the yeast fitness was ≤ 0.5.

Turning to C11G C31A A43C, the yeast fitness was ≤ 0.5.

On to G9A U13G U26C, for which the yeast fitness was ≤ 0.5. For G52A U53A C62U the value was ≤ 0.5. To U3C C5A A15U A20G C30G belongs ≤ 0.5; to C4G C5G C11U C29U G51A, ≤ 0.5. To C34G A37G C62A belongs ≤ 0.5; to C4G G50C, 0.679; to G6A C27A C30U G41C A43U, ≤ 0.5. On to U2A G12A A21C G52C, for which the yeast fitness was ≤ 0.5. For G17A C22U A37U U47A G68C the value was ≤ 0.5; for C31G U53A C55U A57C C60G G67C, ≤ 0.5.

Regarding U19C A20C C31G C49A U64G A69C, the yeast fitness is ≤ 0.5. To A40U G52C C60G belongs ≤ 0.5. Turning to U8C G18C G50A C60U, the yeast fitness turned out to be 0.546.

For the variant C4G C11U A14G C31A C33A, the yeast fitness was ≤ 0.5. U2A C30G C33A: the yeast fitness was ≤ 0.5. To C11A C30U C66U belongs ≤ 0.5; to G38A G67A, 0.881; to C5G A36C A43U, ≤ 0.5. For U3A A21G U35A G56C C62U the value was ≤ 0.5; for A37U C62G A70U, ≤ 0.5; for C29A C30G A57G, ≤ 0.5.

For G51C C55A G68A, the yeast fitness was ≤ 0.5.

As for U19C C29G U54A A65C, the yeast fitness is ≤ 0.5. With C29U C49U C55G G58A, the yeast fitness was ≤ 0.5. For the variant A20U C30G U47C, the yeast fitness was ≤ 0.5. In the case of C4A U13G U32G C55U G63C, the yeast fitness was ≤ 0.5. Turning to C31U A42G C66A, the yeast fitness was ≤ 0.5. Regarding A15U G50A A57C, the yeast fitness is ≤ 0.5. For G12A G25C C49U G51A the value was ≤ 0.5. For C31U C33G A70C the value was ≤ 0.5. In the case of G10A G17C C30G C33G G52C, the yeast fitness was ≤ 0.5. Regarding U3C C5A C24U G58A, the yeast fitness is ≤ 0.5.

In the case of U16G G39C A45G U53C, the yeast fitness was ≤ 0.5. To U28C A43U U47A belongs ≤ 0.5; to A15U U47G A57U, ≤ 0.5; to C4G A40C G68A, ≤ 0.5. For U26C G52A U53C G63C the value was ≤ 0.5. For G12C A15U C30U C60G the value was ≤ 0.5; for C4G A15U C29A C61U, ≤ 0.5. Turning to A20C G44C C61U, the yeast fitness was 0.56.

As for G17A A37C C55U C61U, the yeast fitness is ≤ 0.5. For C5U C22U G48C the value was ≤ 0.5; for A15U C24U C27U C60A C62U U64C G68A A69C, ≤ 0.5; for C5G U7G A69C, ≤ 0.5. For the variant A14U G18C A70G, the yeast fitness was determined as 0.715.

As to C22G C29A U53A C66U, the yeast fitness is ≤ 0.5.

Turning to U8G A14C U26G A43G, the yeast fitness is ≤ 0.5. To C4G C24U U32C G39C belongs ≤ 0.5; to U2A U8C G23A C29G, ≤ 0.5.

G9C C11U A36C: the yeast fitness is ≤ 0.5. To A20G A37U G41C C46A belongs ≤ 0.5. For the variant C24U C30G C46G G52A G58A, the yeast fitness turned out to be 0.559. To C27G C60G belongs ≤ 0.5; to U8A G9A C66A, ≤ 0.5; to A36G A37U G56C, ≤ 0.5. As to C11U G23A, the yeast fitness was found to be 0.952. With U3C G50A A65U G68A, the yeast fitness is ≤ 0.5. To G12A U13C A15U C30U A45C A57G C62U belongs ≤ 0.5. On to C5G U13A C30U, for which the yeast fitness turned out to be 0.56. As to C11G U35G C55U, the yeast fitness is ≤ 0.5. Consider U8A C34U C55G, for which the yeast fitness is ≤ 0.5.

As to U8C C22A U53A, the yeast fitness was ≤ 0.5.

In the case of C29G U32A C62A, the yeast fitness was 0.608. For G17C A40G G41A G56C the value was ≤ 0.5.

As to A14G G18A, the yeast fitness was found to be 0.63. On to C33U A36C A45C G48A C55A, for which the yeast fitness was ≤ 0.5.

Regarding A14C C49U G58C, the yeast fitness is ≤ 0.5. To A15U G18A A42U belongs 0.567; to U3C A15C C33G G44C, ≤ 0.5. For the variant A20U C29A C30A U53G C62G, the yeast fitness was ≤ 0.5. For C11G A36C G56A the value was 0.533; for A37U C55G C61U C62U, ≤ 0.5; for C34U G38A A42U, ≤ 0.5.

In the case of U8C C29A A36C C61G C66U A69U, the yeast fitness is ≤ 0.5. With A20G C29A C31A A40C G44A U59A, the yeast fitness is ≤ 0.5. To G25C U35A G67A A70G belongs ≤ 0.5.

Consider U7G G52A C55U, for which the yeast fitness was ≤ 0.5.

Regarding G10A A20C G38A G41A C55G A69C, the yeast fitness is ≤ 0.5. For U3A C5A A15C C29A A42C A45G the value was ≤ 0.5; for G9C U47G C49A A69U, ≤ 0.5.
